In US20150309029A1, “Methods for Cancer Diagnosis, Anti-Cancer Drug Screening, and Test of Drug Effectiveness on the Basis of Phoshorylation of Ras at Thr-144 and Thr-148” (Industry-Academic Cooperation Foundation, Yonsei University, priority 2010, published 2015):
No constants are given. Whether binding was seen depends on the method and setting. Some results given as binding are weak or reduced against the parent protein; the word gives no strength.

Sequences of proteins named here, by UniProt entry; tags and fusion partners are left off.
UniProt P49841: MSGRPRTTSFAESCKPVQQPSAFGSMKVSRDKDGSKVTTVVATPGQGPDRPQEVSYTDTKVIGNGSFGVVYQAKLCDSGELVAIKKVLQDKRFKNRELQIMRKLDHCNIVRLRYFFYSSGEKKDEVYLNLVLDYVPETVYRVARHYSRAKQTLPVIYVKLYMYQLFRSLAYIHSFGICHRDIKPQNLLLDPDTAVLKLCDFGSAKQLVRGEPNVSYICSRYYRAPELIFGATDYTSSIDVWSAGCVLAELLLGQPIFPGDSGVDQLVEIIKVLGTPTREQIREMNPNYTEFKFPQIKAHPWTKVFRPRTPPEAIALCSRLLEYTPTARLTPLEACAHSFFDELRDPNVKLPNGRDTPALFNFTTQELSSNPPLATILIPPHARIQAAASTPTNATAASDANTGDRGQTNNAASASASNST

Biological target: H-Ras wild type (full-length human H-Ras in pcDNA-3.1-myc, expressed in HEK293 cells) (human) (UniProt P01112)
Assay: IP and immunoblot from transfected HEK293 cells

- binding: binds
Substance: Gsk3β (expressed from pcDNA3.1-Gsk3β-V5 in HEK293 cells) (from UniProt P49841 1-420) (enzyme)
